Reference: patent publication US20210371489A1, “SITE 2 SINGLE-CHAIN INSULIN ANALOGUES” (Case Western Reserve University, priority 2018, published 2021)
At least one peptide structure holds a part that was inferred or is arguable (an end, a ring closure or a residue). Bridge positions count the residues as written; N and C are the ends. Ends that are not written are not given here.

Test system: rat myoblast cell line (L6) with high-expression of insulin receptor (IR)
Assay: RT-qPCR mitogenicity probes Cyclin D1 and Cyclin G2
Assay type: cell-based
Details: L6 rat myoblasts; for Cyclin D1/G2 ratio: higher ratio means more mitogenic potential

| Sequence | Cyclin D1 transcription level | Cyclin G2 transcription level | Cyclin D1/G2 ratio |
| --- | --- | --- | --- |
| FVNCHLCGSHLVEALYLVCGEAGFFYTPETEEGPAHGIVEQCCHSCCSLEQLENYCN (disulfide 4-46, 7-43, 19-56, 42-47) [HA8 CA10 EA14 CB4 AB22 PE EEGPAH] | 3.25 | 0.22 | 14.77 |
| FVNCHLCGSHLVEALYLVCGEHGFFYTPETEEGPAHGIVEQCCHSCCSLEQLENYCN (disulfide 4-46, 7-43, 19-56, 42-47) [HA8 CA10 EA14 CB4 HB22 PE EEGPAH] | 3.5 | 0.2 | 17.50 |
